No constants are given. Whether binding was seen depends on the method and setting. Binding seen in cells or lysates may run through a third protein. These calls come from enrichment with a bait or labelling near it, and not all partners need be listed.
Legend:
Experiment in all cases: affinity purification with mass spectrometry; IP of the endogenous channel with 2 µg channel antibody from 3 mg membrane-enriched mouse heart lysate (1% NP-40, 1% sodium deoxycholate), overnight at 4 °C, Dynabeads Protein G, quadruplicate; LC-MS/MS; significant interactors against control by volcano plot
[1] = target: Scn5a (Nav1.5) (mouse (endogenous in murine cardiac tissue)) (UniProt Q9JJV9)
[2] = target: T1, Kcnj3 (Kir3.1) (mouse (endogenous in murine cardiac tissue)) (UniProt P63250)
T1 sequence: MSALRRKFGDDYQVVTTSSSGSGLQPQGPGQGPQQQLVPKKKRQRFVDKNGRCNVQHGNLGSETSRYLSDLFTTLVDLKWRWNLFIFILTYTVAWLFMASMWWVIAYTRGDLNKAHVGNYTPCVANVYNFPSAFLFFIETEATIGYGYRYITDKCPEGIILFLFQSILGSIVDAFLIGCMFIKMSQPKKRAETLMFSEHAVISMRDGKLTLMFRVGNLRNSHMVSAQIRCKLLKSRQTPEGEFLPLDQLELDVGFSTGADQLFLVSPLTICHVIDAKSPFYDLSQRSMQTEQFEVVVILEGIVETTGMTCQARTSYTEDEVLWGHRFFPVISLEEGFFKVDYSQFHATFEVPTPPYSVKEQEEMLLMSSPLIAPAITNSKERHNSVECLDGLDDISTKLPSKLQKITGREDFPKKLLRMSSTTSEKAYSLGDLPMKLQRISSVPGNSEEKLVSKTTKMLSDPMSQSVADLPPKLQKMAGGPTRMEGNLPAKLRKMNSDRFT

The chains behind the UniProt entries cited, without tags or fusion partners.
UniProt O35219: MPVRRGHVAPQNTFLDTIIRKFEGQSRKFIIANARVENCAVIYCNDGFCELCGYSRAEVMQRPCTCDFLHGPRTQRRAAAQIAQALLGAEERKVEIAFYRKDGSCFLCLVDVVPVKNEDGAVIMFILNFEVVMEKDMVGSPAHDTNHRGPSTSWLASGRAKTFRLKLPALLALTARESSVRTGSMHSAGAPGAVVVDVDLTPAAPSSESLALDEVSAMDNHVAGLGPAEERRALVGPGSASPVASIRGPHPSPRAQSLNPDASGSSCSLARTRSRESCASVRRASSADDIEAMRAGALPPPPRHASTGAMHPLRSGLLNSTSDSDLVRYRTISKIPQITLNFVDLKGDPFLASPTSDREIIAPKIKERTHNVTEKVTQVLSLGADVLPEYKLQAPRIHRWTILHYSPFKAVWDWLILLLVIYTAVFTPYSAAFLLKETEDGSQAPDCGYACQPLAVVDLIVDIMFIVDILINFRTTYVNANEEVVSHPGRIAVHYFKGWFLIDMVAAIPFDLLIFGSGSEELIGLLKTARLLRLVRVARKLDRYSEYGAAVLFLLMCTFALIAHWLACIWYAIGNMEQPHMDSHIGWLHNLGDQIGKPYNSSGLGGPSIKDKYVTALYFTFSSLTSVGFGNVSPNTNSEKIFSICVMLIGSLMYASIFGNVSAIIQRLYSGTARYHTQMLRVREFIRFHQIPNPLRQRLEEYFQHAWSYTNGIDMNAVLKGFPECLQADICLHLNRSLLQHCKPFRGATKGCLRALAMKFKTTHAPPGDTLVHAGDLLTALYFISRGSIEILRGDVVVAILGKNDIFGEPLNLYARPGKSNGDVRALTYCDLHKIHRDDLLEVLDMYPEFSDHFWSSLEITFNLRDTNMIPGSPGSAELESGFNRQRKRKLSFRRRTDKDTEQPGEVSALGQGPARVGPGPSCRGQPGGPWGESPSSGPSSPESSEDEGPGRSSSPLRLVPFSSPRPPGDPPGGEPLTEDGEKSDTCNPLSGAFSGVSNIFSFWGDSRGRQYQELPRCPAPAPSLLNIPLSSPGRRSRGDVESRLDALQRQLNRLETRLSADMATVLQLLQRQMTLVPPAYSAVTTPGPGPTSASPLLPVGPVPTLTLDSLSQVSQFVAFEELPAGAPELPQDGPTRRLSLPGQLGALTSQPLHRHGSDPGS
UniProt P97414: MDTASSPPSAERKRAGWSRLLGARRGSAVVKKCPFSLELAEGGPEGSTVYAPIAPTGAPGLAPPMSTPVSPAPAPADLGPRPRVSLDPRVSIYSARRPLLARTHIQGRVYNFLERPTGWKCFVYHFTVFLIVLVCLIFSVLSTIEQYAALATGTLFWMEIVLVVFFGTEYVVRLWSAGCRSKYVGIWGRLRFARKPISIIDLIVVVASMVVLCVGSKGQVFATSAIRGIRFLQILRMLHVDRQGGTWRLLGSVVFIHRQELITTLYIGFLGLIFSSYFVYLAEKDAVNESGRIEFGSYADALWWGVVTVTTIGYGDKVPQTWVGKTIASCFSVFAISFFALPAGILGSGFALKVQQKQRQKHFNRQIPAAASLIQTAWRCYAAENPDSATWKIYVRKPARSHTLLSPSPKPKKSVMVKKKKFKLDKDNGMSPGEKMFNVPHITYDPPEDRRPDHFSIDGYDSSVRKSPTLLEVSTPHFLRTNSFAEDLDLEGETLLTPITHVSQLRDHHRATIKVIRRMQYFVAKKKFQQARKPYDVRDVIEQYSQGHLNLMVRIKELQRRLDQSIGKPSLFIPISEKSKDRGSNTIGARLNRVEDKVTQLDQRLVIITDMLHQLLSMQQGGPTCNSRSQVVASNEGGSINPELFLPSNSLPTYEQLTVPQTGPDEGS
UniProt Q01815: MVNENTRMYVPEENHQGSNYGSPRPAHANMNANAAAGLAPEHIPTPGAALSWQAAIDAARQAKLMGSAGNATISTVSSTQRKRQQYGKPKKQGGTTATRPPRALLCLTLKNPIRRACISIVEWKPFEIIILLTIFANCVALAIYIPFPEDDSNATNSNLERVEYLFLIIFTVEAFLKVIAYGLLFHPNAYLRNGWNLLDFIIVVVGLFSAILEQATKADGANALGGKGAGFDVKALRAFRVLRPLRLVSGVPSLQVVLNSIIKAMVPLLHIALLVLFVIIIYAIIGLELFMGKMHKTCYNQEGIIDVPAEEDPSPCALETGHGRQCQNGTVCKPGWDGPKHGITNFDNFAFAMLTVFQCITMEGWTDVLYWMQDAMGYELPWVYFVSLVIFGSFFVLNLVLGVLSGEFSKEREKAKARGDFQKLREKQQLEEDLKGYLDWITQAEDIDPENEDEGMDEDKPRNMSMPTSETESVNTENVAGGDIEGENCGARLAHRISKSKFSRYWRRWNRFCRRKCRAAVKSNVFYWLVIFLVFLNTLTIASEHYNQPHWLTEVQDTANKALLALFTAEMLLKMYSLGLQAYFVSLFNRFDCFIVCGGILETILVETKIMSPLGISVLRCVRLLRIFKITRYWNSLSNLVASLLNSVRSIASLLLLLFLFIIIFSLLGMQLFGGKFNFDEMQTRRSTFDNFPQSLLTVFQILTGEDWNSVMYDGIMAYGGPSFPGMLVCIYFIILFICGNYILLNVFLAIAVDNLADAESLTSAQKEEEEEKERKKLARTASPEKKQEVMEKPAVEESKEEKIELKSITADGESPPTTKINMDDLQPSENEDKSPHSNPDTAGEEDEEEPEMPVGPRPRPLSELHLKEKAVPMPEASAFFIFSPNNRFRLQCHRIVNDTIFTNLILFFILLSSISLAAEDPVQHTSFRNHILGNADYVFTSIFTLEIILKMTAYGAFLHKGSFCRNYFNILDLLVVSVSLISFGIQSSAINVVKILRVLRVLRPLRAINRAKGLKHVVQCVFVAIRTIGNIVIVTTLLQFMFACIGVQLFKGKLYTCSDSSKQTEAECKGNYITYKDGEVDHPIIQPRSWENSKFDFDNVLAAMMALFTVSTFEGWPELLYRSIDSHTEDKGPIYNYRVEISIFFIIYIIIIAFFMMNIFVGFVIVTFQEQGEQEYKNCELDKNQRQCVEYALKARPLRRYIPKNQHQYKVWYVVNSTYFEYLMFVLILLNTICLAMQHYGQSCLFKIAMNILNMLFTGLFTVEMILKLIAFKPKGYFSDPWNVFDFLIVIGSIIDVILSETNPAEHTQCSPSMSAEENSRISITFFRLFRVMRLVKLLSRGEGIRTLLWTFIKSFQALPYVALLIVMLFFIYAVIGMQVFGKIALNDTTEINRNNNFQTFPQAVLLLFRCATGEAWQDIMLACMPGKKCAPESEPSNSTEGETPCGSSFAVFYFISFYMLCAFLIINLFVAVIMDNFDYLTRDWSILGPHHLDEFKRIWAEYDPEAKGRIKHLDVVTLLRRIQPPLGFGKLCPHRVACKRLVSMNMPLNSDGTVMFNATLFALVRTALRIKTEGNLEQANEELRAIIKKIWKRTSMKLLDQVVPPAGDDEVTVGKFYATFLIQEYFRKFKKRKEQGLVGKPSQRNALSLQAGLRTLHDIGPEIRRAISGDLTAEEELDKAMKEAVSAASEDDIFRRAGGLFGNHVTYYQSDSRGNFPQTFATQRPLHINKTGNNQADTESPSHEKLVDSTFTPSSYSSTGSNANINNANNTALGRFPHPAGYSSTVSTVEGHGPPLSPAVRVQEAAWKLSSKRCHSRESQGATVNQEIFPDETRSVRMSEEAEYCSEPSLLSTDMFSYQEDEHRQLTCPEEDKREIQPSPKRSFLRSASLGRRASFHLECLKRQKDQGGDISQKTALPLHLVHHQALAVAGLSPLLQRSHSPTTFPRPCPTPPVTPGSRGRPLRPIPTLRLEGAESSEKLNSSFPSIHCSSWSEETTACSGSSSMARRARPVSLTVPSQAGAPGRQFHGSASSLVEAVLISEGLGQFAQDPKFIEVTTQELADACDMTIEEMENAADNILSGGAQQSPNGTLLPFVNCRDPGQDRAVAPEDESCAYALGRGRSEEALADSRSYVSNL

[3] = target: Kcnh2 (Kv11.1/ERG) (mouse (endogenous in murine cardiac tissue)) (UniProt O35219)
[4] = target: Kcnq1 (Kv7.1/Kcnq1) (mouse (endogenous in murine cardiac tissue)) (UniProt P97414)
[5] = target: Gja1 (Cx43) (mouse (endogenous in murine cardiac tissue)), P23242; settings: remark: other sources report otherwise
[6] = target: Cacna1c (Cav1.2) (mouse (endogenous in murine cardiac tissue)) (UniProt Q01815)
[7] = target: T2, Kcnj2 (Kir2.1) (mouse (endogenous in murine cardiac tissue)) (UniProt P35561)
T2 sequence: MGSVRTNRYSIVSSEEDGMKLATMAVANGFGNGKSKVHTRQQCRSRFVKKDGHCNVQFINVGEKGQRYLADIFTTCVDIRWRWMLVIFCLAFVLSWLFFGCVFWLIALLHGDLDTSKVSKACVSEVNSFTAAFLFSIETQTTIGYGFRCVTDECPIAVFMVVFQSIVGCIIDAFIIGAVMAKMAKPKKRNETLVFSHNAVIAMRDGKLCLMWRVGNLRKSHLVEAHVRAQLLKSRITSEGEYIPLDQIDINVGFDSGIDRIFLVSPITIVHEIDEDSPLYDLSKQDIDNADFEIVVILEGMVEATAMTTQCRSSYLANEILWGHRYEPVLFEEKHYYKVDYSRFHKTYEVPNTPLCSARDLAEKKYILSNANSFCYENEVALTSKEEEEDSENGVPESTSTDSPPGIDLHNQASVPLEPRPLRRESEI

B1: Glipr2 (protein, UniProt Q9CYL5 1-154)
chain: MGKSASKQFNNEVLKAHNEYRAQHGVPPLKLCKKLNREAQQYSEALASTRILKHSPESSRGQCGENLAWASYDQTGKDVADRWYSEIKSYNFQQPGFTSGTGHFTAMVWKNTKKIGVGKASASDGSSFVVARYFPAGNIVNQGFFEENVPPPKK
binding [1]: binds

B2: epsin-2 (Epn2) (protein, UniProt Q8CHU3 1-595)
chain: MTTSSIRRQMKNIVNNYSEAEIKVREATSNDPWGPSSSLMTEIADLTYNVVAFSEIMSMVWKRLNDHGKNWRHVYKALTLLDYLIKTGSERVAQQCRENIFAIQTLKDFQYIDRDGKDQGINVREKSKQLVALLKDEERLKVERVQALKTKERMAQVATGVGSNQITFGRGSSQPNLSTSYSEQEYGKAGGSPASYHGSTSPRVSSELEQARPQTSGEEELQLQLALAMSREVAEQSSESVQTARGSKEERLRRGDDLRLQMALEESRRDTVKVPKKKEAKACCKPGSHSQQTTLLDLMDALPSSGPVTQKTEPWSAGASANQTNPWGGTVAPSNITDPWPSFGTKPAASVDPWGVPTTASTQSVPKNSDPWAASQQPASNAGKTTDAWGAAKPSSASGSFELFSNFNGTVKDDFSEFDNLRTSKKPAESGASVPPQDSRTTSPDLFESQSLTSASSKPSSARKTPESFLGPNAALVNLDSLVTKPAPPAQSLNPFLAPGAAAPAPVNPFQVNQPQPLTLNQLRGSPVLGSSASFGSGPGVETVAPMTSVAPHSSVGASGSSLTPLGPTAMNMVGSVGIPPSAAQSTGTTNPFLL
binding [1]: binds

B3: Synpo2l (protein, UniProt Q8BWB1 1-975)
chain: MGAEEEVQVTLAGGAPWGFRLQGGTEQRKPLQIRRRSQAGRAGLRERDQLLAINGVSCTNFSHASAMTLIDASGRQLVLTVRRVTDEGSVRSPSPGELQVLSPLSPLSPEPPGAPVSQALQPTSLRSPPDSEAYYGETDSDVDGPATQEKPRRTRRRGPARPSLPGAPPDEVYLSDSPAEPAPVKTGSPSQGDSRVSSPSWEEGAALQPPPAEALLLPHGPLRPGPHLIPMVGPVPHPVAEDLTTTYTQKAKQAKLQRAESLQEKSVKEARTKCRTIASLLTAAPNPHSKGVLMFKKRRQRAKKYTLVSFGAAAGTGTEEEDGIPPTSESELDEETFSDARSLTNQSDWDSPYLDMELARAGLGTAESQNSGLGGQLSEVSGRGVQLFEQQRQRVASSSQELAQVGPAAMLNGQSLQSPPRAQSAPPEAAVLPLSPLSVPAVSPTPFFPDGGAPIPAPSIFNRSARPFTPGLQGQRSGTTSVIFRPLAPKKVNEGLGSTSPAPSPFAAPPQGPTPLPSFTTVVPSHTPVSGASSSTQRSSGPVTATSSLYIPAPSRPVTPGGAPEPPTPPSAAAMTSTASIFLSTPLRNSARPEAPGPAVPEPASVREQRISVPAARTGILQEARRRGTRKQMFRPGKEETKNSPNPELLSLVQNLDEKPRAGGAESGPEEDALSLGAEACNFMQPLGGRSYKTLPQVSPKTPPPMAPKTPPPTTPKTPPPVAPKPGSRGLLDGLVNGSTPMVGIPEPPRLQGRGGELFAKRQSRADRYVVEATSGSSLNPGLRPRSPSPTPSLPPSWKYSPNIRAPPPIAYNPLLSPFFPQAARTLPNKAQSQGPRVTPKQGIKALDFMRHQPYQLKTAMFCFDEGSSTPGPTSGPPKTARVQEIRRFSTPAPQPTAEPLAPTVLVPRAATTLDEPIWRAELASTPVPNPDHQESLRSFAAAPSSCGFQVARPRFSATRTGLQAHVWRPGAGHQ
binding [2]: binds | binding [3]: binds | binding [4]: binds

B4: Pln, P61014 1-52 (protein)
chain: MEKVQYLTRSAIRRASTIEMPQQARQNLQNLFINFCLILICLLLICIIVMLL
binding [5]: binds

B5: Pln (protein, UniProt P61014 1-52)
chain: MEKVQYLTRSAIRRASTIEMPQQARQNLQNLFINFCLILICLLLICIIVMLL
binding [6]: binds

B6: Flot2 (protein, UniProt Q60634 1-428)
chain: MGNCHTVGPNEALVVSGGCCGSDYKQYVFGGWAWAWWCISDTQRISLEIMTLQPRCEDVETAEGVALTVTGVAQVKIMTEKELLAVACEQFLGKNVQDIKNVVLQTLEGHLRSILGTLTVEQIYQDRDQFAKLVREVAAPDVGRMGIEILSFTIKDVYDKVDYLSSLGKTQTAVVQRDADIGVAEAERDAGIREAECKKEMLDVKFMADTKIADSKRAFELQKSAFSEEVNIKTAEAQLAYELQGAREQQKIRQEEIEIEVVQRKKQIAVEAQEILRTDKELIATVRRPAEAEAHRIQQIAEGEKVKQVLLAQAEAEKIRKIGEAEAAVIEAMGKAEAERMKLKAEAYQKYGDAAKMALVLEALPQIAAKISAPLTKVDEIVVLSGDNSKVTSEVNRLLAELPASVHALTGVDLSKIPLIKNATGAQV
binding [7]: binds

B7: Mpp7 (protein, UniProt Q8BVD5 1-576)
chain: MPALATGSACDMGLYELLAALPAQLQPHVDSQEDLTFLWDVFGEKSLHSLVKIHEKLHCYEKQNPLPILHGAAALADDLTEELQNKLPNSEIRELLKLLSKPNVKALLSVHDTVAQKSYDPVLPPVPDDIDDEEDSVKIIRLVKNSEPLGATIKKDEQTGAITVARIMRGGAADRSGLIHVGDELREVNGIPVEDKRPEEIIKILSQSKGAITFKIIPSTKEETPSKEGKIFIKALFDYDPKEDKAIPCKEAGLSFRKGDILQIMSQDDVTWWQAKHEGDANPRAGLIPSKHFQERRLALRRPEIVVQPLKLSNTKSSGFRRSFRLSRKNKKINKSMYECKKSEQYDTADVPTYEEVTPYRRQIHDKYRLIVLVGPVGVGLNELKRKLLMSDAQHYGVIVPHTTRARRSQESDGVEYIFISKHLFETDVQINKFIEYGEYKNNYYGTSIDSVRSVLAKNKVCLLDVQPHTVKHLRTLEFKPYVIFIKPPSIERLRETRKNAKIISSRDDQGTAKPFTEEDFQEMIKSAQIMESQYGHLFDKIIINDDLTVAFNELKTTFDKLETDTHWVPVSWLHS
binding [7]: binds

B8: Nebl (protein, UniProt Q0II04 1-452)
chain: MKVPVSGDVKEETEEENVEQEENQEAKVSLKPVIEDLSMELARKCTELISDIHYKEEYKKSKDKCTFVTDTPMLNHVKNIGAFISEAKYKGTIKADLSNCLYKDMPATIDSVFAREVSQLQSEVAYKQKHEAEKGFSDYTHMKEPPEVRRAMEVNRHQSNISYRKDMQGTHTYTAELDRPDIKKATQISKIISDAEYKKGQGIVNKEPSVIGRPDFEHAVGASKLSSQVKYKEKFDNEMKEKSHHYNPLGSAFFRQHQFAAVLASDWEYKRDFEENKGLYHFDAEAPEHLHHKGNATLQSQVKYREEYEKNKGKSMLEFVETPSYQSSKEAQKMQSEKVYKEDFEKEIKGRSSLDLDKTPAFLHVKHITNLMREKEYKKDLENEIKGKGMELSSEVLDIQRAKRASEMASEKDYKRDLETEIKGKGMQVSTDTLDVQRAKRASEMASQVRMV
binding [4]: binds

Source: PMC11041666
